This experiment concerns the target human CTLA-4 expressed on cells (293-hCTLA-4 cells; CTLA-4-expressing CHO-K1 cells) (human) (UniProt P16410). The experiment is described as follows: flow cytometry on 293F-hCTLA-4 cells.

Sequences of proteins named here, by UniProt entry; tags and fusion partners are left off. A change or cut given only in a name is not applied to a line headed by its entry.
UniProt P16410: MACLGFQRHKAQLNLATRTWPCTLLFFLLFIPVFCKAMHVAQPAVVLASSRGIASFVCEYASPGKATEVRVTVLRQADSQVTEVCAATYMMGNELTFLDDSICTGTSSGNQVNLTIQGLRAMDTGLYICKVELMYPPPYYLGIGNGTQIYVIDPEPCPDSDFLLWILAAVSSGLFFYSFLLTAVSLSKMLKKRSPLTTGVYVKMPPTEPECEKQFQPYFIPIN

Results are given in words; binding and its absence hold for the method and conditions named. Some results given as binding are weak or reduced against the parent protein; the word gives no strength.

B1: CL20′-eA (antibody, human IgG1, V domains shown)
VH: EVQLVESGGGLVQPGGSLRLSCAASGFTFSNYWMHWVRQAPGKGLVWVSRINSDGSNTTYADSVKGRFTISRDNAKNTLYLQMNSLRAEDTAVYYCARWFGEHYYGMDVWGQGTTVTVSS
B1: the binding entry is “binds”.

(Values after US20190202914A1.)
